Measurements: PubChem BioAssay AID330 (DTP/NCI, 2004)
The list does not hold the whole screen: it is rich in T/C values a quarter to a half above the control, in often repeated tests (any T/C) and in doses without a T/C. Further doses and runs are listed elsewhere. T/C gives the treated animals as a percentage of the vehicle group. Some doses have a count of surviving animals in place of a T/C: the source files T/C as zero there, which appears to mark a toxic dose or a test without result, not a measured value. Some doses without a T/C left all or most animals alive at the check, yet need not have been tolerated: the source hardly ever lists a survival T/C far under the control, and the zero likely stands for such cases as well. Survivors were counted at the toxicity check, usually on the fifth day, unless a day is given; later deaths do not show. Schedules are NCI's codes, taken here to give the interval after Q, in days (D) or hours (H), and the number of doses after X. Some entries were tested several times; the values are given in rising order. For survival time, the PubChem record calls one and a half times the control and up active, and a quarter to a half above the control has no call in these data; cut-offs in other NCI protocols can differ. Some T/C values are followed by the survivors on the day toxicity was checked, most often the fifth; without a count, all were alive then.

Tested on: P388 leukemia ip, CD2F1 mice, survival T/C
Test: NCI In Vivo Anticancer Drug Screen. Data for tumor model P388 Leukemia (intraperitoneal) in CD2F1 (CDF1) mice
Settings: T/C endpoint: median survival time, higher T/C = longer survival
[1] = dose: 400.0 mg/kg/injection, schedule: Q04DX002 (ip), vehicle: saline
[2] = dose: 400.0 mg/kg/injection, schedule: Q04DX003 (ip), vehicle: saline
[3] = dose: 100.0 mg/kg/injection, schedule: Q01DX005 (ip), vehicle: saline with Tween-80
[4] = dose: 200.0 mg/kg/injection, schedule: Q01DX005 (ip), vehicle: saline with Tween-80
[5] = dose: 100.0 mg/kg/injection, schedule: Q04DX002 (ip), vehicle: saline

In the case of `CCO/C=C(\C#N)S(=O)(=O)/C(C#N)=C/OCC`, the survivor count [1] is reported as 0 of 6.

For `COc1ccc(Cc2nnc(C)c3c(C)[nH]nc23)cc1OC`, the survivor count (dose: 200.0 mg/kg/injection, schedule: Q01DX009 (ip), vehicle: Klucel (hydroxypropylcellulose) (HPC)) was 6 of 6.

`Cc1ncccc1[N+](=O)[O-]` was tested, and the survivor count (dose: 100.0 mg/kg/injection, schedule: Q01DX009 (ip), vehicle: saline + Tween-80 + alcohol) was 6 of 6 and the survivor count (dose: 200.0 mg/kg/injection, schedule: Q01DX009 (ip), vehicle: saline + Tween-80 + alcohol) was 0 of 6.

For `CCCC(O)CN` (configuration not stated), the survivor count [2] was 5 of 6.

`COc1cc2c(cc1OC)-c1c(C)c3ccc(OC)c(NCc4ccccc4)c3c[n+]1CC2` was tested, and the survivor count (dose: 50.0 mg/kg/injection, schedule: Q04DX003 (ip), vehicle: other) was 0 of 6, the survivor count (dose: 100.0 mg/kg/injection, schedule: Q04DX003 (ip), vehicle: other) was 0 of 6 and the survivor count (dose: 200.0 mg/kg/injection, schedule: Q04DX003 (ip), vehicle: other) was 0 of 6. For the same compound, the survivor count (dose: 400.0 mg/kg/injection, schedule: Q04DX003 (ip), vehicle: other) was 0 of 6.

`C/C(=N\NC(=O)c1ccncc1)c1cccc(/C(C)=N/NC(=O)c2ccncc2)n1.CC(=O)[O-].CC(=O)[O-].[Zn+2]` was tested, and the survivor count [3] was 6 of 6 and the survivor count [4] was 6 of 6.

For `O=NNc1ccc(Sc2ccccc2)cn1`, the T/C (dose: 1.56 mg/kg/injection, schedule: Q01DX009 (ip), vehicle: saline) was 126 % of control, the T/C (dose: 3.12 mg/kg/injection, schedule: Q01DX009 (ip), vehicle: saline) was 144 and 148 % of control and the T/C (dose: 6.25 mg/kg/injection, schedule: Q01DX009 (ip), vehicle: saline) was 141 % of control. The survivor count (dose: 25.0 mg/kg/injection, schedule: Q01DX009 (ip), vehicle: saline) was 3 of 6 and 4 of 6 and the survivor count (dose: 50.0 mg/kg/injection, schedule: Q01DX009 (ip), vehicle: saline) was 0 of 6.

For `[CH2-]N(CC)CC.[CH2-]N(CC)CC.[Rh].[Rh].[Rh].[c-]1[c-][c-][cH-][c-]1.[c-]1[c-][c-][cH-][c-]1.[c-]1[c-][c-][cH-][c-]1`, the T/C (dose: 50.0 mg/kg/injection, schedule: Q04DX002 (ip), vehicle: saline) was 130 % of control, the T/C [5] was 97 [5 of 6 alive] and 136 % of control and the survivor count [5] was 3 of 6 and 6 of 6. For the same compound, the survivor count (dose: 200.0 mg/kg/injection, schedule: Q04DX002 (ip), vehicle: saline) was 1 of 6 and 4 of 6 and the survivor count [1] was 0 of 6.

For `CSC(=S)/C(=C/Nc1ccccn1)c1ccccc1`, the survivor count (dose: 3.75 mg/kg/injection, schedule: Q01DX005 (ip), vehicle: Klucel (hydroxypropylcellulose) (HPC)) was 6 of 6, the survivor count (dose: 7.5 mg/kg/injection, schedule: Q01DX005 (ip), vehicle: Klucel (hydroxypropylcellulose) (HPC)) was 6 of 6 and the survivor count (dose: 15.0 mg/kg/injection, schedule: Q01DX005 (ip), vehicle: Klucel (hydroxypropylcellulose) (HPC)) was 6 of 6. For the same compound, the survivor count (dose: 30.0 mg/kg/injection, schedule: Q01DX005 (ip), vehicle: Klucel (hydroxypropylcellulose) (HPC)) was 6 of 6, the survivor count (dose: 60.0 mg/kg/injection, schedule: Q01DX005 (ip), vehicle: Klucel (hydroxypropylcellulose) (HPC)) was 6 of 6 and the survivor count (dose: 120.0 mg/kg/injection, schedule: Q01DX005 (ip), vehicle: Klucel (hydroxypropylcellulose) (HPC)) was 6 of 6. The survivor count (dose: 240.0 mg/kg/injection, schedule: Q01DX005 (ip), vehicle: Klucel (hydroxypropylcellulose) (HPC)) was 6 of 6.

For `CCOC(=O)NCP(Cl)(CNC(=O)OCC)(CNC(=O)OCC)CNC(=O)OCC`, the survivor count (dose: 200.0 mg/kg/injection, schedule: Q01DX009 (ip), vehicle: saline) was 3 of 6.

With `C/C(=N\NC(=S)N1CCC(c2ccccc2)CC1)c1ncccn1` the T/C (dose: 25.0 mg/kg/injection, schedule: Q01DX005 (ip), vehicle: saline with Tween-80) was 127 % of control, the T/C (dose: 50.0 mg/kg/injection, schedule: Q01DX005 (ip), vehicle: saline with Tween-80) was 131 % of control and the T/C [3] was 149 % of control. For the same compound, the survivor count [3] was 6 of 6 and the survivor count [4] was 0 of 6.

For `[Cl][Pt+2][Cl].[NH-]CC([NH-])CN`, the survivor count (dose: 100.0 mg/kg/injection, schedule: Q04DX003 (ip), vehicle: saline) was 0 of 6, the survivor count (dose: 200.0 mg/kg/injection, schedule: Q04DX003 (ip), vehicle: saline) was 0 of 6 and the survivor count [2] was 0 of 6.
